Test system: BAF complex subunits and histone proteins
Assay: Mass spectrometry proteomics of purified HA-SS18 WT and HA-SS18-SSX1 complexes (Tables 5A-5E)
Parameters: species or system human
Conditions: for Total / Unique: HA-SS18SSX1_CHR_peptides; for Total: total peptides of the identified protein; for Unique: unique peptides of the identified protein
[1] = HA-SS18WT_NE_peptides: HA-SS18 WT complexes purified from nuclear extract (NE), HEK-293T, label = protein identified (Gene Symbol)
[2] = HA-SS18SSX1 purification, NE (soluble nuclear extract) fraction, HEK-293T, peptides per identified protein
[3] = HA-SS18SSX1_CHR_peptides: proteins found in HA-SS18-SSX1 BAF complex purification from solubilized chromatin (CHR), HEK-293T
[4] = HA-SS18SSX1_NE_peptides: protein co-purified with HA-SS18-SSX1 BAF complexes from soluble nuclear extract (NE), HEK-293T cells
[5] = HA-SS18WT_NE_peptides: proteins co-purified with HA-SS18 WT from nuclear extract (NE), HEK-293T
[6] = HA-SS18WT_CHR_peptides: protein identified in HA-SS18 WT BAF complex purification from nuclease-treated solubilized chromatin (CHR), HEK-293T
[7] = HA-SS18SSX1_CHR_peptides: protein identified in the HA-SS18-SSX1 purification from solubilized chromatin (CHR), HEK-293T
[8] = HA-SS18WT_CHR_peptides: HA-SS18 WT purification from nuclease-treated solubilized chromatin (CHR), HEK-293T, label = protein identified

B1: MYO1D (protein, UniProt O94832 2-1006, looked up)
Unconventional myosin-Id: AEQESLEFGKADFVLMDTVSMPEFMANLRLRFEKGRIYTFIGEVVVSVNPYKLLNIYGRDTIEQYKGRELYERPPHLFAIADAAYKAMKRRSKDTCIVISGESGAGKTEASKYIMQYIAAITNPSQRAEVERVKNMLLKSNCVLEAFGNAKTNRNDNSSRFGKYMDINFDFKGDPIGGHINNYLLEKSRVIVQQPGERSFHSFYQLLQGGSEQMLRSLHLQKSLSSYNYIHVGAQLKSSINDAAEFRVVADAMKVIGFKPEEIQTVYKILAAILHLGNLKFVVDGDTPLIENGKVVSIIAELLSTKTDMVEKALLYRTVATGRDIIDKQHTEQEASYGRDAFAKAIYERLFCWIVTRINDIIEVKNYDTTIHGKNTVIGVLDIYGFEIFDNNSFEQFCINYCNEKLQQLFIQLVLKQEQEEYQREGIPWKHIDYFNNQIIVDLVEQQHKGIIAILDDACMNVGKVTDEMFLEALNSKLGKHAHFSSRKLCASDKILEFDRDFRIRHYAGDVVYSVIGFIDKNKDTLFQDFKRLMYNSSNPVLKNMWPEGKLSITEVTKRPLTAATLFKNSMIALVDNLASKEPYYVRCIKPNDKKSPQIFDDERCRHQVEYLGLLENVRVRRAGFAFRQTYEKFLHRYKMISEFTWPNHDLPSDKEAVKKLIERCGFQDDVAYGKTKIFIRTPRTLFTLEELRAQMLIRIVLFLQKVWRGTLARMRYKRTKAALTIIRYYRRYKVKSYIHEVARRFHGVKTMRDYGKHVKWPSPPKVLRRFEEALQTIFNRWRASQLIKSIPASDLPQVRAKVAAVEMLKGQRADLGLQRAWEGNYLASKPDTPQTSGTFVPVANELKRKDKYMNVLFSCHVRKVNRFSKVEDRAIFVTDRHLYKMDPTKQYKVMKTIPLYNLTGLSVSNGKDQLVVFHTKDNKDLIVCLFSKQPTHESRIGELVGVLVNHFKSEKRHLQVNVTNPVQCSLHGKKCTVSVETRLNQPQPDFTKNRSGFILSVPGN
Total: 1 | Unique: 1 | Total (peptides) [1]: 10 | Unique (peptides) [1]: 10

B2: DPM1 (protein, UniProt O60762 2-260, looked up)
Dolichol-phosphate …: ASLEVSRSPRRSRRELEVRSPRQNKYSVLLPTYNERENLPLIVWLLVKSFSESGINYEIIIIDDGSPDGTRDVAEQLEKIYGSDRILLRPREKKLGLGTAYIHGMKHATGNYIIIMDADLSHHPKFIPEFIRKQKEGNFDIVSGTRYKGNGGVYGWDLKRKIISRGANFLTQILLRPGASDLTGSFRLYRKEVLEKLIEKCVSKGYVFQMEMIVRARQLNYTIGEVPISFVDRVYGESKLGGNEIVSFLKGLLTLFATT
Total: 1 | Unique: 1 | Total (total peptides) [2]: 4 | Unique (unique peptides) [2]: 4 | Total (peptides) [1]: 4 | Unique (peptides) [1]: 4

B3: NXF1 (protein, UniProt Q9UBU9 2-619, looked up)
Nuclear RNA export factor 1: ADEGKSYSEHDDERVNFPQRKKKGRGPFRWKYGEGNRRSGRGGSGIRSSRLEEDDGDVAMSDAQDGPRVRYNPYTTRPNRRGDTWHDRDRIHVTVRRDRAPPERGGAGTSQDGTSKNWFKITIPYGRKYDKAWLLSMIQSKCSVPFTPIEFHYENTRAQFFVEDASTASALKAVNYKILDRENRRISIIINSSAPPHTILNELKPEQVEQLKLIMSKRYDGSQQALDLKGLRSDPDLVAQNIDVVLNRRSCMAATLRIIEENIPELLSLNLSNNRLYRLDDMSSIVQKAPNLKILNLSGNELKSERELDKIKGLKLEELWLDGNSLCDTFRDQSTYISAIRERFPKLLRLDGHELPPPIAFDVEAPTTLPPCKGSYFGTENLKSLVLHFLQQYYAIYDSGDRQGLLDAYHDGACCSLSIPFIPQNPARSSLAEYFKDSRNVKKLKDPTLRFRLLKHTRLNVVAFLNELPKTQHDVNSFVVDISAQTSTLLCFSVNGVFKEVDGKSRDSLRAFTRTFIAVPASNSGLCIVNDELFVRNASSEEIQRAFAMPAPTPSSSPVPTLSPEQQEMLQAFSTQSGMNLEWSQKCLQDNNWDYTRSAQAFTHLKAKGEIPEVAFMK
Total (peptides) [3]: 1 | Unique (peptides) [3]: 1 | Total (peptides) [4]: 2 | Unique (peptides) [4]: 2 | Total (peptides) [5]: 1 | Unique (peptides) [5]: 1

B4: CHAMP1 (protein, UniProt Q96JM3 1-812, looked up)
Chromosome …: MEAFQELRKPSARLECDHCSFRGTDYENVQIHMGTIHPEFCDEMDAGGLGKMIFYQKSAKLFHCHKCFFTSKMYSNVYYHITSKHASPDKWNDKPKNQLNKETDPVKSPPLPEHQKIPCNSAEPKSIPALSMETQKLGSVLSPESPKPTPLTPLEPQKPGSVVSPELQTPLPSPEPSKPASVSSPEPPKSVPVCESQKLAPVPSPEPQKPAPVSPESVKATLSNPKPQKQSHFPETLGPPSASSPESPVLAASPEPWGPSPAASPESRKSARTTSPEPRKPSPSESPEPWKPFPAVSPEPRRPAPAVSPGSWKPGPPGSPRPWKSNPSASSGPWKPAKPAPSVSPGPWKPIPSVSPGPWKPTPSVSSASWKSSSVSPSSWKSPPASPESWKSGPPELRKTAPTLSPEHWKAVPPVSPELRKPGPPLSPEIRSPAGSPELRKPSGSPDLWKLSPDQRKTSPASLDFPESQKSSRGGSPDLWKSSFFIEPQKPVFPETRKPGPSGPSESPKAASDIWKPVLSIDTEPRKPALFPEPAKTAPPASPEARKRALFPEPRKHALFPELPKSALFSESQKAVELGDELQIDAIDDQKCDILVQEELLASPKKLLEDTLFPSSKKLKKDNQESSDAELSSSEYIKTDLDAMDIKGQESSSDQEQVDVESIDFSKENKMDMTSPEQSRNVLQFTEEKEAFISEEEIAKYMKRGKGKYYCKICCCRAMKKGAVLHHLVNKHNVHSPYKCTICGKAFLLESLLKNHVAAHGQSLLKCPRCNFESNFPRGFKKHLTHCQSRHNEEANKKLMEALEPPLEEQQI
Total (peptides) [3]: 1 | Unique (peptides) [3]: 1

B5: METTL17 (protein, UniProt Q9H7H0 20-456, looked up)
Ribosome assembly protein …: VAPQARALAALVPGVTQVDNKSGFLQKRPHRQHPGILKLPHVRLPQALANGAQLLLLGSAGPTMENQVQTLTSYLWSRHLPVEPEELQRRARHLEKKFLENPDLSQTEEKLRGAVLHALRKTTYHWQELSYTEGLSLVYMAARLDGGFAAVSRAFHEIRARNPAFQPQTLMDFGSGTGSVTWAAHSIWGQSLREYMCVDRSAAMLVLAEKLLKGGSESGEPYIPGVFFRQFLPVSPKVQFDVVVSAFSLSELPSKADRTEVVQTLWRKTGHFLVLVENGTKAGHSLLMDARDLVLKGKEKSPLDPRPGFVFAPCPHELPCPQLTNLACSFSQAYHPIPFSWNKKPKEEKFSMVILARGSPEEAHRWPRITQPVLKRPRHVHCHLCCPDGHMQHAVLTARRHGRDLYRCARVSSWGDLLPVLTPSAFPPSTAQDPSES
Total (peptides) [3]: 1 | Unique (peptides) [3]: 1 | Total (total peptides) [2]: 4 | Unique (unique peptides) [2]: 3 | Total (total peptides) [6]: 2 | Unique (unique peptides) [6]: 2 | Total (peptides) [1]: 5 | Unique (peptides) [1]: 4

B6: NHP2 (protein, UniProt Q9NX24 1-153, looked up)
H/ACA ribonucleoprotein …: MTKIKADPDGPEAQAEACSGERTYQELLVNQNPIAQPLASRRLTRKLYKCIKKAVKQKQIRRGVKEVQKFVNKGEKGIMVLAGDTLPIEVYCHLPVMCEDRNLPYVYIPSKTDLGAAAGSKRPTCVIMVKPHEEYQEAYDECLEEVQSLPLPL
Total (peptides) [3]: 1 | Unique (peptides) [3]: 1

B7: ATAD2 (protein, UniProt Q6PL18 1-1390, looked up)
ATPase family AAA …: MVVLRSSLELHNHSAASATGSLDLSSDFLSLEHIGRRRLRSAGAAQKKPAATTAKAGDGSSVKEVETYHRTRALRSLRKDAQNSSDSSFEKNVEITEQLANGRHFTRQLARQQADKKKEEHREDKVIPVTRSLRARNIVQSTEHLHEDNGDVEVRRSCRIRSRYSGVNQSMLFDKLITNTAEAVLQKMDDMKKMRRQRMRELEDLGVFNETEESNLNMYTRGKQKDIQRTDEETTDNQEGSVESSEEGEDQEHEDDGEDEDDEDDDDDDDDDDDDDDEDDEDEEDGEEENQKRYYLRQRKATVYYQAPLEKPRHQRKPNIFYSGPASPARPRYRLSSAGPRSPYCKRMNRRRHAIHSSDSTSSSSSEDEQHFERRRKRSRNRAINRCLPLNFRKDELKGIYKDRMKIGASLADVDPMQLDSSVRFDSVGGLSNHIAALKEMVVFPLLYPEVFEKFKIQPPRGCLFYGPPGTGKTLVARALANECSQGDKRVAFFMRKGADCLSKWVGESERQLRLLFDQAYQMRPSIIFFDEIDGLAPVRSSRQDQIHSSIVSTLLALMDGLDSRGEIVVIGATNRLDSIDPALRRPGRFDREFLFSLPDKEARKEILKIHTRDWNPKPLDTFLEELAENCVGYCGADIKSICAEAALCALRRRYPQIYTTSEKLQLDLSSINISAKDFEVAMQKMIPASQRAVTSPGQALSTVVKPLLQNTVDKILEALQRVFPHAEFRTNKTLDSDISCPLLESDLAYSDDDVPSVYENGLSQKSSHKAKDNFNFLHLNRNACYQPMSFRPRILIVGEPGFGQGSHLAPAVIHALEKFTVYTLDIPVLFGVSTTSPEETCAQVIREAKRTAPSIVYVPHIHVWWEIVGPTLKATFTTLLQNIPSFAPVLLLATSDKPHSALPEEVQELFIRDYGEIFNVQLPDKEERTKFFEDLILKQAAKPPISKKKAVLQALEVLPVAPPPEPRSLTAEEVKRLEEQEEDTFRELRIFLRNVTHRLAIDKRFRVFTKPVDPDEVPDYVTVIKQPMDLSSVISKIDLHKYLTVKDYLRDIDLICSNALEYNPDRDPGDRLIRHRACALRDTAYAIIKEELDEDFEQLCEEIQESRKKRGCSSSKYAPSYYHVMPKQNSTLVGDKRSDPEQNEKLKTPSTPVACSTPAQLKRKIRKKSNWYLGTIKKRRKISQAKDDSQNAIDHKIESDTEETQDTSVDHNETGNTGESSVEENEKQQNASESKLELRNNSNTCNIENELEDSRKTTACTELRDKIACNGDASSSQIIHISDENEGKEMCVLRMTRARRSQVEQQQLITVEKALAILSQPTPSLVVDHERLKNLLKTVVKKSQNYNIFQLENLYAVISQCIYRHRKDHDKTSLIQKMEQEVENFSCSR
Total (total peptides) [7]: 24 | Unique (unique peptides) [7]: 23 | Total (peptides) [8]: 14 | Unique (peptides) [8]: 14

Reference: patent publication US20250283871A1, “COMPOSITIONS AND METHODS FOR MODULATING THE INTERACTION BETWEEN SS18-SSX FUSION ONCOPROTEIN AND NUCLEOSOMES” (Dana-Farber Cancer Institute, Inc., priority 2020, published 2025)
